Measurements from US20230183355A1 (UNIVERSITY OF WESTERN ONTARIO, published 2023).
Results are given in words; binding and its absence hold for the method and conditions named. Some binding calls cover weakened binding; strength is not graded here.

Chains of the proteins cited; added tags and fusions are not shown. Lines headed by an entry give the natural chain unless they say otherwise; changes in a name come on top.
UniProt Q13349: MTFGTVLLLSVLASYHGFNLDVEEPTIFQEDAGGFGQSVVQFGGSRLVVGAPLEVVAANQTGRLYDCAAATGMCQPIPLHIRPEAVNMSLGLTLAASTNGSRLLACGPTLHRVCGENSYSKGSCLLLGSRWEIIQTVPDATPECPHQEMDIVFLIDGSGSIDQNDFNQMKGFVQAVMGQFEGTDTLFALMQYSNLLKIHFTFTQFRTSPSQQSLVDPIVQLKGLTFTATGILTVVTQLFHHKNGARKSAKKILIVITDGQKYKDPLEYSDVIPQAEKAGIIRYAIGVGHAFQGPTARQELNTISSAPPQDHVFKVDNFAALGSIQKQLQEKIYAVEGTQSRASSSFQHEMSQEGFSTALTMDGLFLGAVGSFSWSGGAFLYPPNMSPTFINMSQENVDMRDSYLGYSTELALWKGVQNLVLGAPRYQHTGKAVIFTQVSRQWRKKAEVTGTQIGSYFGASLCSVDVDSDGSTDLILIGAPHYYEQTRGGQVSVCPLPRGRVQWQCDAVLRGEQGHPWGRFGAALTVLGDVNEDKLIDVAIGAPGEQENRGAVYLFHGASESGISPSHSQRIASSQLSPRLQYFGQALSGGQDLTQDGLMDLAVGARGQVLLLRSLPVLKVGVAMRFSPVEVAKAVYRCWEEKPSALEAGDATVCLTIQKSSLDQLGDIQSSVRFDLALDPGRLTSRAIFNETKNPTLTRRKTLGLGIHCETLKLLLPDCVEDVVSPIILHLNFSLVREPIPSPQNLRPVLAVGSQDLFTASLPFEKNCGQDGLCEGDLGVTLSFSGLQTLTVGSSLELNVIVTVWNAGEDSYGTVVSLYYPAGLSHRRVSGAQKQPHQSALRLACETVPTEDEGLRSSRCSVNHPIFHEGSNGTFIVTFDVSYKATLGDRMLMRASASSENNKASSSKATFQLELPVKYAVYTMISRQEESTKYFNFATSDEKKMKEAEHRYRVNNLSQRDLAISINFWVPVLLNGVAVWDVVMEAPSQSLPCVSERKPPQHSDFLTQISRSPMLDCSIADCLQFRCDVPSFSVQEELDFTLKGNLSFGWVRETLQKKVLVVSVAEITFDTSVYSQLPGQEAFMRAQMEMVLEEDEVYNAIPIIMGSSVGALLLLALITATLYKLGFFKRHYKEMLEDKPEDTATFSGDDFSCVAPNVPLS

Target: T1, human CD11d/CD18 expressed on JY cells (human, UniProt Q13349 18-1161; P05107 23-769)
T1 construct: whole, on cells
Assay: FACS on JY cells expressing human CD11d/CD18

B1: Exemplified Antibody 2 (antibody, human IgG4 S228P, kappa, F234A L235A, V domains shown)
VH: QVQLVQSGAEVKKPGASVKVSCKASGYTFGDYNMHWVRQAPGQGLEWMGYIYPYNGDTGYNQNFKSRVTMTRDTSTSTVYMELSSLRSEDTAVYYCARGLVHYGYLNVAMDSWGQGTLVTVSS
VL: DIQMTQSPSSLSASVGDRVTITCRASRSIGTRIHWYQQKPGKAPKLLIYFASGSISGVPSRFSGSGSGTDFTLTISSLQPEDFATYYCQQSKIFPTTFGGGTKLEIKR
notes: Humanized antibody, full LC (kappa) and HC (IgG4)
How did the binding turn out when B1 was run?
Its binding is “binds”.
